PubChem BioAssay AID1224830, NIAID – 2016
Purpose: 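Regulators of TLR4 signalling towards TNF-alpha in macrophage-like cells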 (primary screen). Cell system: human THP-1 monocytic leukaemia cells, TNF dual-luciferase reporter clone, PMA-differentiated to macrophage-like cells. Reagent: siRNA pool against human genes, 50 nM. Duration: LPS for 4 h, given about 3 days after siRNA transfection. Treatment: bacterial LPS (TLR4 ligand), 10 ng/ml. Measurement: 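TNF firefly reporter luminescence divided by renilla, normalised to the plate median, then turned into a robust z-score for each replicate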. Reading the numbers: TNF reporter robust z-score: higher = stronger TNF reporter response to LPS. Hit rule: 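Each well counts as active if its z-score is over 2.8 or under -1.5; controls are left without a call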.
In all, the deposit lists about 18,000 reagents; shown is an unselected part. About 2,900 of them (16%) count as active. 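Calls are made per well; low scores hint the gene aids the LPS response, high scores that it dampens it.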 Entries without a mark were called inactive. Repeated entries: four replicate wells of each siRNA pool.

OR4N3P (olfactory receptor family 4 subfamily N member 3 pseudogene) showed TNF reporter robust z-score -1.03. OR4N3P (olfactory receptor family 4 subfamily N member 3 pseudogene) gave TNF reporter robust z-score 0.2. After knock-down of OR4N3P (olfactory receptor family 4 subfamily N member 3 pseudogene), the screen gave TNF reporter robust z-score -0.05. OR4N3P (olfactory receptor family 4 subfamily N member 3 pseudogene) gave TNF reporter robust z-score 0.22. For HAUS3 (HAUS augmin like complex subunit 3), the values are TNF reporter robust z-score 0.03. After knock-down of HAUS3 (HAUS augmin like complex subunit 3) the results were TNF reporter robust z-score -0.06.

Against HAUS3 (HAUS augmin like complex subunit 3) the deposit lists TNF reporter robust z-score 0.25. Silencing of SUPT16H (SPT16 homolog, facilitates chromatin remodeling subunit) came out at: TNF reporter robust z-score -0.27. Against SUPT16H (SPT16 homolog, facilitates chromatin remodeling subunit) the deposit lists TNF reporter robust z-score 0.55. Against SUPT16H (SPT16 homolog, facilitates chromatin remodeling subunit), the values are TNF reporter robust z-score 0.8. For SUPT16H (SPT16 homolog, facilitates chromatin remodeling subunit) the deposit lists TNF reporter robust z-score 3.08 (active). HMGCLL1 (3-hydroxy-3-methylglutaryl-CoA lyase like 1) showed TNF reporter robust z-score 0.6.

After knock-down of HMGCLL1 (3-hydroxy-3-methylglutaryl-CoA lyase like 1), the screen gave TNF reporter robust z-score 0.94. Against HMGCLL1 (3-hydroxy-3-methylglutaryl-CoA lyase like 1) the deposit lists TNF reporter robust z-score 0.13. Depletion of HMGCLL1 (3-hydroxy-3-methylglutaryl-CoA lyase like 1) resulted in: TNF reporter robust z-score 0.57. CTRB1 (chymotrypsinogen B1) scored TNF reporter robust z-score -0.32. For CTRB1 (chymotrypsinogen B1) the deposit lists TNF reporter robust z-score -0.76. CTRB1 (chymotrypsinogen B1) showed TNF reporter robust z-score -0.11.

Knock-down of CTRB1 (chymotrypsinogen B1) came out at: TNF reporter robust z-score -0.8. CACNA1C (calcium voltage-gated channel subunit alpha1 C) scored TNF reporter robust z-score -1.62 (active). With knock-down of CACNA1C (calcium voltage-gated channel subunit alpha1 C), the record shows TNF reporter robust z-score -1.24. After knock-down of CACNA1C (calcium voltage-gated channel subunit alpha1 C), the record shows TNF reporter robust z-score -0.18. CACNA1C (calcium voltage-gated channel subunit alpha1 C) showed TNF reporter robust z-score -0.98. SLC25A23 scored TNF reporter robust z-score 0.59.

SLC25A23 scored TNF reporter robust z-score -0.17. With knock-down of SLC25A23 the results were TNF reporter robust z-score 1.14. Silencing of SLC25A23 came out at: TNF reporter robust z-score 1.38. Silencing of ATN1 (atrophin 1) gave: TNF reporter robust z-score 0.26. Against ATN1 (atrophin 1), the entry reads TNF reporter robust z-score -0.31. Knock-down of ATN1 (atrophin 1) gave: TNF reporter robust z-score 0.12.

Knock-down of ATN1 (atrophin 1) resulted in: TNF reporter robust z-score 0.68. With knock-down of MXRA5 (matrix remodeling associated 5), the screen gave TNF reporter robust z-score -0.12. After knock-down of MXRA5 (matrix remodeling associated 5), the record shows TNF reporter robust z-score -0.29. MXRA5 (matrix remodeling associated 5) showed TNF reporter robust z-score 0.38. MXRA5 (matrix remodeling associated 5) scored TNF reporter robust z-score 0.75. Against PHF19 (PHD finger protein 19), the values are TNF reporter robust z-score 0.98.

For PHF19 (PHD finger protein 19), the entry reads TNF reporter robust z-score 0.19. After knock-down of PHF19 (PHD finger protein 19), the screen gave TNF reporter robust z-score 0.99. Against PHF19 (PHD finger protein 19), the values are TNF reporter robust z-score 0.17. APLF (aprataxin and PNKP like factor) showed TNF reporter robust z-score 0.13. With knock-down of APLF (aprataxin and PNKP like factor), the record shows TNF reporter robust z-score -0.85. With knock-down of APLF (aprataxin and PNKP like factor), the record shows TNF reporter robust z-score -0.37.

After knock-down of APLF (aprataxin and PNKP like factor), the screen gave TNF reporter robust z-score 1.07. After knock-down of HDGFL2 (HDGF like 2), the record shows TNF reporter robust z-score -0.01. Knock-down of HDGFL2 (HDGF like 2) came out at: TNF reporter robust z-score -0.7. For HDGFL2 (HDGF like 2), the values are TNF reporter robust z-score -1.41. HDGFL2 (HDGF like 2) gave TNF reporter robust z-score -0.48. CCDC88C (coiled-coil and HOOK domain protein 88C) gave TNF reporter robust z-score 0.64.

Knock-down of CCDC88C (coiled-coil and HOOK domain protein 88C) came out at: TNF reporter robust z-score -0.21. With knock-down of CCDC88C (coiled-coil and HOOK domain protein 88C), the screen gave TNF reporter robust z-score 0.03. CCDC88C (coiled-coil and HOOK domain protein 88C) gave TNF reporter robust z-score 0.34. Silencing of POU4F1 (POU class 4 homeobox 1) gave: TNF reporter robust z-score 0.78. With knock-down of POU4F1 (POU class 4 homeobox 1), the screen gave TNF reporter robust z-score 0.91. After knock-down of POU4F1 (POU class 4 homeobox 1), the screen gave TNF reporter robust z-score 0.95.

POU4F1 (POU class 4 homeobox 1) showed TNF reporter robust z-score 1.06. WIF1 (Wnt inhibitory factor 1) showed TNF reporter robust z-score -0.77. Against WIF1 (Wnt inhibitory factor 1), the entry reads TNF reporter robust z-score -0.74. Knock-down of WIF1 (Wnt inhibitory factor 1) gave: TNF reporter robust z-score 0.08. After knock-down of WIF1 (Wnt inhibitory factor 1), the screen gave TNF reporter robust z-score 0.18. Against EMC1 (ER membrane protein complex subunit 1), the values are TNF reporter robust z-score 0.1.

Silencing of EMC1 (ER membrane protein complex subunit 1) came out at: TNF reporter robust z-score 0.15. With knock-down of EMC1 (ER membrane protein complex subunit 1), the record shows TNF reporter robust z-score -0.32. Knock-down of EMC1 (ER membrane protein complex subunit 1) gave: TNF reporter robust z-score 0.64.

9 successive reagents from above, for reference:
ATN1 (atrophin 1) | TNF reporter robust z-score = 0.68
MXRA5 (matrix remodeling associated 5) | TNF reporter robust z-score = -0.12
MXRA5 (matrix remodeling associated 5) | TNF reporter robust z-score = -0.29
MXRA5 (matrix remodeling associated 5) | TNF reporter robust z-score = 0.38
MXRA5 (matrix remodeling associated 5) | TNF reporter robust z-score = 0.75
PHF19 (PHD finger protein 19) | TNF reporter robust z-score = 0.98
PHF19 (PHD finger protein 19) | TNF reporter robust z-score = 0.19
PHF19 (PHD finger protein 19) | TNF reporter robust z-score = 0.99
PHF19 (PHD finger protein 19) | TNF reporter robust z-score = 0.17
